Measured values as given in patent US8524890B2, “Water-soluble phthalocyanine dye” (National Institute for Materials Science, priority 2009, dated 2013).
At least one read-out could not be matched to a standard name with certainty.

Test: Solubility and aggregation in mixed water/ethanol solvent (optical absorption spectra, FIG. 7)
Type: physicochemical
Conditions: 10% (v/v) ethanol, versus pure water

[Sb(tbpc)(SO4)(HSO4)].4H2O [Compound 2]
improvement in solubility in the presence of ethanol: > 100 times
